In all, about 33,000 sequences were measured (“E-score (-0.5 to 0.5)”: median about -0.015, highest 2% from about 0.3 on). The list shows a part of the results.
Target: T1, Abf1 (UniProt P14164)
T1 sequence: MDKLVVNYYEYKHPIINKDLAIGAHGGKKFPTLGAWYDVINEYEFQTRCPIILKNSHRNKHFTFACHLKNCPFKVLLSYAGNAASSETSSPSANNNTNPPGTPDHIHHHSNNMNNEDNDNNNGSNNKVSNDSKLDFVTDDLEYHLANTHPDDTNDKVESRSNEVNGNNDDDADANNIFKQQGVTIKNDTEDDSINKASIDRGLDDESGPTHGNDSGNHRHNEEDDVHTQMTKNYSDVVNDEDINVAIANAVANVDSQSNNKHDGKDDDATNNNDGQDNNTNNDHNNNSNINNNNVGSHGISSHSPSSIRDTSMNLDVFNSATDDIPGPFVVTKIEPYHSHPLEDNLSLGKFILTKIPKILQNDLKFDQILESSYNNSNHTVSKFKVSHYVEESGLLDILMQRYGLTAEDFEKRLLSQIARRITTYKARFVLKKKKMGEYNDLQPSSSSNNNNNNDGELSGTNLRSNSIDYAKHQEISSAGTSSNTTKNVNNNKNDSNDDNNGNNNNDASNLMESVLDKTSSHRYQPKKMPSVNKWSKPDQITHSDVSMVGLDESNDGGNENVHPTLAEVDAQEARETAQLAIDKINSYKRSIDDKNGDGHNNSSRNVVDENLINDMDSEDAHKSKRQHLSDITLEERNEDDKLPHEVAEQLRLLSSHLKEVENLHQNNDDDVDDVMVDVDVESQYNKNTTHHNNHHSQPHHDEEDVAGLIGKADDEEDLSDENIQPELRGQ
Assay: PBM E-score (8-mer binding enrichment) (E-score (-0.5 to 0.5)); higher = stronger / more preferred TF binding
Conditions: protein concentration: 200 nM; construct: GST-full length
Procedure, shortened: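 Each ungapped eight-base word and its reverse complement, pooled, received an E-score from the Universal PBM Analysis Suite. Underlying scans, normalised with masliner, recorded fluorescent anti-GST bound to GST-tagged yeast transcription factors. These were applied at about 100-200 nM to universal all-10-mer Agilent arrays double-stranded by primer extension.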

| Sequence | PBM E-score |
| --- | --- |
| ATCATACA | 0.236 |
| GAAAAGCC | -0.21 |
| TGTTTAAA | -0.101 |
| GCGGCCCC | -0.172 |
| TATGGGCA | -0.0697 |
| CGCGTGTC | 0.0878 |
| ATTTTAGC | 0.23 |
| GGATTTCA | -0.142 |
| ATCTGGAC | -0.106 |
| AGGTCAGG | -0.146 |
| GGGCCTTA | -0.124 |
| GCCGGGCC | -0.246 |
| ACGAATAA | 0.215 |
| ACCAACCG | 0.0265 |
| GCGAGGCC | -0.093 |
| GACCAGAA | 0.00619 |
| GCAGAACA | -0.122 |
| GTACGAAC | 0.418 |
| AGCCCCCA | -0.434 |
| TCCTTGCA | -0.341 |
| AGGTCTCG | -0.136 |
| GTTTCGAA | 0.0325 |
| ATGTCAGA | -0.0353 |
| AGATATCC | 0.232 |
| AAATGATT | 0.275 |

| Sequence | PBM E-score |
| --- | --- |
| GTAAAGGA | 0.0222 |
| CACTTGAG | -0.156 |
| ACCCCCTA | -0.224 |
| AGGGACAA | -0.0947 |
| ACGATCGC | 0.265 |
| AGCGAACA | -0.00595 |
| CTACTGGA | -0.176 |
| TCCGTGAA | 0.238 |
| TAAGAGCA | -0.0807 |
| CCCCTGGA | -0.17 |
| CAATAAAG | -0.0422 |
| ACGCGCAT | 0.0499 |
| GCTTAGAC | -0.0521 |
| ATGAGTGG | -0.103 |
| CCAAGGCC | -0.253 |
| GCGAATCA | 0.156 |
| GCGCTCCC | -0.11 |
| CGCCGGGA | -0.181 |
| CATGTATA | -0.0591 |
| TCCTGGCA | -0.275 |
| ATGTTTGA | 0.00846 |
| CACGAACA | 0.186 |
| ATAACGTA | 0.249 |
| ATGCTGTG | 4e-05 |
| AGTTGAAC | 0.0182 |

| Sequence | PBM E-score |
| --- | --- |
| TGCTCACA | 0.181 |
| AGTGTTTC | -0.0199 |
| ATACTCGG | 0.0238 |
| AAGAATAC | -0.0674 |
| GACAATTA | 0.0768 |
| ACGAGGCG | 0.191 |
| AGATAGCT | -0.0374 |
| CCGAGGAG | -0.269 |
| CGGAGTAG | -0.0389 |
| CGGGGACG | -0.0197 |
| AGTGTAAC | -0.00614 |
| GAAGAATA | -0.095 |
| GCCACACA | -0.262 |
| CACGCACA | 0.0735 |
| ACTGTGTC | 0.0262 |
| AATTAGGG | -0.19 |
| ACGAACAA | 0.331 |
| CAATGGTA | 0.0522 |
| CTGGCTAA | -0.121 |
| AGGGAGCC | -0.367 |
| ACAATCAC | 0.103 |
| GCGCACGC | -0.0586 |
| ATTCGAAC | -0.0201 |
| GCAGGCGC | -0.261 |
| AAGGCCCC | -0.129 |

| Sequence | PBM E-score |
| --- | --- |
| GACTCTGA | -0.123 |
| GTCGGGGA | -0.0711 |
| TGGATGAA | 0.0531 |
| CGCCCCCG | -0.368 |
| ACTTACGC | -0.0756 |
| AGACATAC | -0.018 |
| AGAGGCAT | -0.132 |
| CCAGCAAC | -0.117 |
| CGGATTTA | 0.104 |
| ACGGCGAC | 0.224 |
| AATTTAGG | 0.107 |
| AGCGTCCG | -0.17 |
| AGTGTGAA | 0.0488 |
| GAATGTTA | 0.0974 |
| ATGCATCG | 0.0268 |
| AAAGAGAC | -0.111 |
| ATCGTAGC | 0.201 |
| GACAACTA | 0.0809 |
| AAGCATAA | 0.0416 |
| ACTCCGGC | 0.0156 |
| GATGCTAA | 0.00632 |
| AGCTAGAC | 0.0184 |
| CTACCCTC | -0.127 |
| ACCAGCAA | 0.014 |
| ACGAGCCT | 0.00254 |

Rewritten tab-delimited: entries from further up
Sequence	PBM E-score
AGACATAC	-0.018
AGCGTCCG	-0.17
ATCGTAGC	0.201
GACAACTA	0.0809
AAGCATAA	0.0416

Following part:

| Sequence | PBM E-score |
| --- | --- |
| GCCCTCGA | -0.262 |
| CGTAGGCC | 0.0973 |
| AGCGTATC | -0.022 |
| GATTGGCA | -0.24 |
| GTCATGTA | 0.0381 |
| GCGATCAA | 0.159 |
| TCAATCCA | 0.088 |
| GCACCCAA | -0.239 |
| CTAAGCAG | -0.0714 |
| ATGGGTTG | 0.0214 |
| CCGGTCCG | -0.188 |
| CCCGTCTC | -0.0841 |
| TCCGAGGA | -0.0625 |
| ATGAGATA | 0.114 |
| GGACTTAC | -0.162 |
| CCTCCTGA | -0.0904 |
| CTCCGGTC | -0.189 |
| GAATGGCC | -0.0962 |
| CAGTCGTC | -0.0143 |
| CATCGAGC | -0.169 |
| AGTCCTAG | -0.211 |
| CCTCCGTA | 0.116 |
| GAGTATGC | 0.0528 |
| CTACTTAA | -0.0903 |
| CATTCAAG | 0.0298 |

Reformatted with tabs: part of the list above.
Sequence	PBM E-score
GCCCTCGA	-0.262
CGTAGGCC	0.0973

Additional results:

| Sequence | PBM E-score |
| --- | --- |
| AAGGACCG | -0.16 |
| AGCGTCTC | -0.161 |
| CAGCGTAG | 0.00721 |
| CATGTCGG | -0.0428 |
| GGCTCACA | -0.0273 |
| GACACGTA | 0.0943 |
| CGTGGTAC | 0.161 |
| TCCATACA | 0.101 |
| AAAAATGG | -0.0408 |
| ACTTGACC | -0.108 |
| ACCGTGAC | 0.167 |
| CTATAGCA | 0.0359 |
| AGGAGAGC | -0.383 |
| AAGCGTTG | 0.0339 |
| AGAAGACA | 0.101 |
| CGGAGCCC | -0.28 |
| TATTTCCA | 0.089 |
| CCGGGCAG | -0.259 |
| CAGCCGCG | -0.23 |
| ATACAGTA | 0.0839 |
| GTGATAGA | 0.192 |
| GCAATGAA | 0.0384 |
| AGTTGGCA | -0.0976 |
| ACTTCACT | -0.0471 |
| AATAAGGA | -0.0387 |

| Sequence | PBM E-score |
| --- | --- |
| ATTTAAAG | 0.185 |
| GCGGAAGC | -0.15 |
| CCGCGATC | 0.0149 |
| CTGGGACC | -0.164 |
| AACTCCAG | -0.102 |
| GGCTTAGA | -0.0672 |
| CTGCTCAA | -0.113 |
| AACCATAG | -0.0259 |
| GGCAAGCA | -0.141 |
| ACTGTGAC | 0.145 |
| CATTCCAC | -0.0854 |
| TAACACGA | 0.228 |
| AGTCCTAA | 0.111 |
| ACAGTCGG | -0.121 |
| CTTAGTTA | -0.00602 |
| GGATGACA | 0.253 |
| ATCCAAGG | -0.0148 |
| ACACACGT | -0.122 |
| AGCAAAAA | -0.04 |
| TGGACTAA | 0.0233 |
| CCGAGGCG | -0.0239 |
| TCACGGCA | 0.296 |

Looked up above.
CTGCTCAA – PBM E-score: -0.113
AACCATAG – PBM E-score: -0.0259
CATTCCAC – PBM E-score: -0.0854

Reference: the supplement of paper PMC3334620
